{"source": "PubChem BioAssay AID652259 (Drosophila RNAi Screening Center, 2013)", "purpose": "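Identify new Wingless signalling regulators in fly cells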 (primary screen)", "cell system": "Drosophila clone 8 imaginal disc epithelial cells", "knock-down reagent": "long dsRNA against Drosophila genes", "challenge": "pathway stimulated by co-transfected Wingless expression plasmid", "read-out": "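Firefly luciferase from a tcf-site Wingless reporter, measured alongside co-transfected Renilla luciferase that tracks transfection; pathway stimulated by a Wingless plasmid; the firefly-to-Renilla ratio is not deposited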", "scale": "firefly reporter light: higher = more Wg reporter light, before normalisation; Renilla control light: higher = more transfected or surviving cells", "rule for the call": "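Strong candidates differ from their plate mean by at least two out of four per-plate statistical tests; weak candidates meet just one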", "meaning of the calls": "active = candidate regulator (raises or lowers reporter); inactive = not a candidate", "note": "In all, the deposit lists about 22,000 reagents; below is a random part of those with a known target gene and a result. Of all reagents, 233 (1.1%) were called active. 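Light values are raw, unnormalised plate reads; the ratio scores behind the reporter calls were not deposited.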 A number with no mark means an inactive call. The numbers tell different reagents against one gene apart. Reagent sequences are not shown. Not stated in the record: the amount of reagent, the time to read-out, the dose of the treatment."}
{"Target gene": "CG10321", "reagent": 1, "firefly reporter light, replicate 1": 4140, "Renilla control light, replicate 1": 438}
{"Target gene": "Msr-110", "reagent": 1, "firefly reporter light, replicate 1": 7808, "Renilla control light, replicate 1": 1705}
{"Target gene": "CG6693", "reagent": 1, "firefly reporter light, replicate 1": 9159, "Renilla control light, replicate 1": 2916}
{"Target gene": "Nubp2 (NUBP iron-sulfur cluster assembly factor 2)", "reagent": 1, "firefly reporter light, replicate 1": 19830, "Renilla control light, replicate 1": 5900}
{"Target gene": "aly (always early)", "reagent": 1, "firefly reporter light, replicate 1": 7698, "Renilla control light, replicate 1": 4204}
{"Target gene": "aly (always early)", "reagent": 2, "firefly reporter light, replicate 1": 4.05e5, "firefly reporter light, replicate 2": 4.26e5, "Renilla control light, replicate 1": 1.47e5, "Renilla control light, replicate 2": 1.48e5}
{"Target gene": "Mzt1 (Mitotic spindle organizing protein 1)", "reagent": 1, "firefly reporter light, replicate 1": 3648, "Renilla control light, replicate 1": 1442}
{"Target gene": "CG13578", "reagent": 1, "firefly reporter light, replicate 1": 2052, "firefly reporter light, replicate 2": 7079, "Renilla control light, replicate 1": 763, "Renilla control light, replicate 2": 2632}
{"Target gene": "Obp50e (Odorant-binding protein 50e)", "reagent": 1, "firefly reporter light, replicate 1": 6125, "Renilla control light, replicate 1": 2012}
{"Target gene": "CG9269", "reagent": 1, "firefly reporter light, replicate 1": 18482, "Renilla control light, replicate 1": 4461}
{"Target gene": "CG9391", "reagent": 1, "firefly reporter light, replicate 1": 11687, "Renilla control light, replicate 1": 3328}
{"Target gene": "CG4914", "reagent": 1, "firefly reporter light, replicate 1": 4919, "Renilla control light, replicate 1": 1850}
{"Target gene": "CG14903", "reagent": 1, "firefly reporter light, replicate 1": 22023, "Renilla control light, replicate 1": 4433}

Sorted by “Renilla control light, replicate 1” (ascending): some entries from above.
{"Target gene": "CG4914", "reagent": 1, "firefly reporter light, replicate 1": 4919, "Renilla control light, replicate 1": 1850}
{"Target gene": "CG9391", "reagent": 1, "firefly reporter light, replicate 1": 11687, "Renilla control light, replicate 1": 3328}

More entries:
{"Target gene": "Su(var)3-7 (Suppressor of variegation 3-7)", "reagent": 1, "firefly reporter light, replicate 1": 12272, "Renilla control light, replicate 1": 2348}
{"Target gene": "pelo (pelota)", "reagent": 1, "firefly reporter light, replicate 1": 5476, "Renilla control light, replicate 1": 1840}
{"Target gene": "CG9837", "reagent": 1, "firefly reporter light, replicate 1": 14848, "Renilla control light, replicate 1": 4599}
{"Target gene": "lmd (lame duck)", "reagent": 1, "firefly reporter light, replicate 1": 2176, "firefly reporter light, replicate 2": 4885, "Renilla control light, replicate 1": 1178, "Renilla control light, replicate 2": 1688}
{"Target gene": "CG13972", "reagent": 1, "firefly reporter light, replicate 1": 7216, "Renilla control light, replicate 1": 3029}
{"Target gene": "CG6125", "reagent": 1, "firefly reporter light, replicate 1": 10777, "Renilla control light, replicate 1": 3142}
{"Target gene": "vas (retired record)", "reagent": 1, "firefly reporter light, replicate 1": 6.79e5, "firefly reporter light, replicate 2": 7.09e5, "Renilla control light, replicate 1": 2.21e5, "Renilla control light, replicate 2": 2.29e5}
{"Target gene": "CG13367", "reagent": 1, "firefly reporter light, replicate 1": 28456, "Renilla control light, replicate 1": 15917}
{"Target gene": "CG13367", "reagent": 2, "firefly reporter light, replicate 1": 32064, "Renilla control light, replicate 1": 16912}
{"Target gene": "CG31121", "reagent": 1, "firefly reporter light, replicate 1": 16240, "Renilla control light, replicate 1": 14348}
{"Target gene": "CG31121", "reagent": 2, "firefly reporter light, replicate 1": 19179, "Renilla control light, replicate 1": 14344}
{"Target gene": "Ir62a (Ionotropic receptor 62a)", "reagent": 1, "firefly reporter light, replicate 1": 4957, "Renilla control light, replicate 1": 2324}
